Laboratory results: publication PMC5675618, “Identification and validation of FGFR2 peptide for detection of early Barrett's neoplasia” (Oncotarget, 2017)

How the values were obtained:
[1] = test system: sections of human esophagus ex vivo; assay: Confocal microscopy of staining of human esophageal specimens ex vivo (SQ, BE, HGD, EAC); conditions: ROC curve, T/B ratio of 3.0, compared with pathology
Protocol: Formalin-fixed sections of human esophageal specimens were deparaffinized, and antigen retrieval was performed using standard methods. Briefly, the sections were incubated in xylene for 3 min 3X, washed with 100% ethanol for 2 min 2X, and washed with 95% ethanol for 2 min 2X. Rehydration was performed by washing in dH2O for 5 min 2X. Antigen unmasking was performed by boiling the slides in 10 mM sodium citrate buffer with 0.05% Tween at pH 6.0, and then maintaining at sub-boiling temperature for 15 min. The slides were cooled for 30 min, and the sections were washed in dH2O for 3 min 3X and in PBS for 5 min. Blocking was performed with DAKO protein blocking agent (X0909, DAKO) for 1 hour at RT. The peptides were incubated at a concentration of 1 μM for 10 min at RT. The sections were washed in PBS for 3 min 3X, and incubated with 1:1000 dilution of monoclonal anti-FGFR2 (Abcam, ab58201) overnight at 4°C.
The sections were then washed in PBS for 5 min 3X. A 1:500 dilution of AF488-labeled secondary antibody (goat anti-mouse) was added to each section and incubated for 30 min at RT. The secondary antibody solution was removed by washing with PBS for 5 min 3X. […] The mean fluorescence intensities from 3 boxes (dimensions of 30×30 μm^2) located completely within the surface epithelium of each specimen were measured. […]

[2] = test system: sections of human esophageal squamous cell cancer (SCC); assay: Confocal microscopy of staining of human esophageal squamous cell cancer (SCC) ex vivo; conditions: ROC curve
From the text: We observed good co-localization of peptide and antibody binding on merged images, Supplementary Figure 5C. Representative histology (H&E) for SCC is shown, Supplementary Figure 5D. […] Representative histology (H&E) for normal stomach is shown, Supplementary Figure 5H.

[3] = test system: sections of human gastric cancer; assay: Confocal microscopy of staining of human gastric cancer ex vivo; conditions: ROC curve
From the text: We observed good co-localization of peptide and antibody binding on merged images, Supplementary Figure 6C. Representative histology (H&E) for gastric cancer is shown, Supplementary Figure 6D. […] Representative histology (H&E) for normal stomach is shown, Supplementary Figure 6H.

Sequence: SRRPASFRTARE [SRR^*-Cy5.5]
- sensitivity to detect Barrett's neoplasia (HGD and EAC) [1]: 87%
- specificity to detect Barrett's neoplasia (HGD and EAC) [1]: 70%
- sensitivity for detecting SCC [2]: 94%
- specificity for detecting SCC [2]: 96%
- sensitivity for detecting gastric cancer [3]: 90%
- specificity for detecting gastric cancer [3]: 100%
